{"sequences": {"note": "Sequences of proteins named here, by UniProt entry; tags and fusion partners are left off.", "UniProt P35462, whole entry, looked up": "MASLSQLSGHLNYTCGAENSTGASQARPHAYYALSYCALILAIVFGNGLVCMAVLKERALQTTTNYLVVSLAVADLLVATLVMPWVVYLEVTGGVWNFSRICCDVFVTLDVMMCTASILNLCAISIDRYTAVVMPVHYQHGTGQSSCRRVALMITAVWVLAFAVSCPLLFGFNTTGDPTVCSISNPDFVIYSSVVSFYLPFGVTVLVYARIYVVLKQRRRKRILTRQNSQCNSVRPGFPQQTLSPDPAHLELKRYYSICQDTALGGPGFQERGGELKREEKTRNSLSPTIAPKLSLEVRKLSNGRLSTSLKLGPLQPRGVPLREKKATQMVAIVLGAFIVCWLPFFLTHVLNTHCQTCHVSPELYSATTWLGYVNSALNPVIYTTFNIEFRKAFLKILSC"}, "source": "PubChem BioAssay AID652054", "about": "(National Center for Advancing Translational Sciences (NCATS), 2013)", "note": "The whole screen tested about 360,000 compounds, of which about 9,100 (2.5%) were called active. Inconclusive means that the source gave no clear call. Such entries were picked first, then a sample of the others. Rule as the data show it: active = max response below about -50%; inconclusive = no clear call, values can overlap the other calls; inactive = above that. % is scaled to controls: 0 for no effect and ±100 for the full control effect."}
{"molecular_target": "D(3) dopamine receptor (Homo sapiens) (UniProt P35462)", "assay": "qHTS of D3 Dopamine Receptor Antagonist: qHTS", "settings": "D3R cells, DiscoveRx beta-arrestin luminescence, antagonist mode; stronger effect = lower value", "procedure,_shortened": "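Cells plated overnight at 1500 cells/well, then exposed to library compounds with dopamine controls for 90 minutes at 37 degrees C. DiscoveRx reagent added for 30–60 minutes at room temperature; luminescence read, quantitative HTS format.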"}
{"smiles": "CCOC(=O)C1(C)CCCN(C(=O)C(c2ccccc2)c2ccccc2)C1", "note": "(centres undefined)", "max response, negative = inhibition": "inconclusive: -38.5%"}
{"smiles": "Cc1cccc(NC(=O)C2CCN(S(=O)(=O)c3cccc4nsnc34)CC2)c1", "max response, negative = inhibition": "inactive: -19.5%"}
{"smiles": "CCn1nc(NS(=O)(=O)c2cccc3nonc23)c2cc3ccc(C)cc3nc21", "max response, negative = inhibition": "inconclusive: -34.9%"}
{"smiles": "Cc1c(Cl)cccc1NC(=O)NCc1ccc(C)n1C", "max response, negative = inhibition": "inactive: 13.8%"}
{"smiles": "Nc1nc2c3ccccc3nc(C3CC3)n2n1", "max response, negative = inhibition": "inactive: -2.09%"}
{"smiles": "O=C(Nc1nc(N2C(=O)c3ccccc3C2=O)n(-c2ccccc2)n1)c1ccc(F)cc1", "max response, negative = inhibition": "active: -54.8%"}
{"smiles": "Cc1ccc(NC(=O)c2cccc(C(F)(F)F)c2)cc1NC(=O)c1[nH]cnc1C(N)=O", "max response, negative = inhibition": "inactive: 45.5%"}
{"smiles": "COc1cc(OC)c(OC)cc1CN1CCc2ccccc2C1", "max response, negative = inhibition": "inconclusive: -30.4%"}
{"smiles": "CCOc1ccc(N(C)S(=O)(=O)c2cnc[nH]2)cc1", "max response, negative = inhibition": "inconclusive: -37.7%"}
{"smiles": "Cc1cc(C)c(S(=O)(=O)N2CCN(c3ccc([N+](=O)[O-])c(NCc4ccco4)c3)CC2)c(C)c1", "max response, negative = inhibition": "inactive: -23.8%"}
{"smiles": "CCOC(=O)[C@H]1[C@H]2COc3cc(OC)ccc3[C@@H]2N2C(=O)c3cc(F)c(F)cc3NC(=O)[C@@]12C", "max response, negative = inhibition": "inactive: 0.123%"}
{"smiles": "Cc1noc(C)c1-c1ccc(C(=O)NCCc2ccccc2)c2occc12", "max response, negative = inhibition": "inconclusive: -31.2%"}
{"smiles": "COCc1cc(=O)[nH]c(SCCS(=O)(=O)c2ccc(C)cc2)n1", "max response, negative = inhibition": "inactive: 2.81%"}
{"smiles": "O=C(c1ccc(Cl)c(S(=O)(=O)N2CCCC2)c1)N1CCCCC1", "max response, negative = inhibition": "inconclusive: -40.4%"}
{"smiles": "COc1ccc(-n2nnnc2C(c2ccccc2)N2CCN(C/C=C/c3ccccc3)CC2)cc1", "note": "(centres undefined)", "max response, negative = inhibition": "active: -118%"}
{"smiles": "Cc1ccc(S(=O)(=O)/C(C#N)=C/c2c(N3CCC(C(N)=O)CC3)nc3c(C)cccn3c2=O)cc1", "max response, negative = inhibition": "inconclusive: -38.6%"}
{"smiles": "COc1ccc(/C=N\\NS(=O)(=O)c2ccc(C)cc2)cc1COc1ccccc1[N+](=O)[O-]", "max response, negative = inhibition": "inconclusive: -42.5%"}
{"smiles": "CC(=O)Nc1ccc(S(=O)(=O)NN=Cc2ccc(Cl)c(Cl)c2)cc1", "max response, negative = inhibition": "active: -70.6%"}
{"smiles": "Cc1cc(N2C(=O)C3C4CCC(C4)C3C2=O)no1", "note": "(centres undefined)", "max response, negative = inhibition": "inactive: -12.4%"}
{"smiles": "Cc1cccc(NC(=O)Nc2ccc(Oc3c(F)c(F)c(F)c(F)c3F)cc2)c1", "max response, negative = inhibition": "active: -117%"}
{"smiles": "O=C(NC(=O)N1CCN(c2cccc(Cl)c2)CC1)c1ccc(Cl)cc1", "max response, negative = inhibition": "inconclusive: -44.2%"}
{"smiles": "O=C(CSc1nnnn1-c1ccccc1)Nc1ccccc1", "max response, negative = inhibition": "inconclusive: -31.5%"}
{"smiles": "COc1ccccc1-c1sc2ccccc2c1-c1ccc2c(c1)OCO2", "max response, negative = inhibition": "inconclusive: -47%"}
{"smiles": "COc1ccc(C(C[N+](=O)[O-])c2c(-c3ccccc3)cc3ccccn23)cc1OC", "note": "(centres undefined)", "max response, negative = inhibition": "inconclusive: -32.5%"}
{"smiles": "NNC(=S)NC1CCS(=O)(=O)C1", "note": "(centres undefined)", "max response, negative = inhibition": "inconclusive: -33.5%"}
{"smiles": "Cc1cccc(NC(=O)c2ccc3c(c2)C(=O)N(c2ccccn2)C3=O)c1C", "max response, negative = inhibition": "inconclusive: -31.9%"}
{"smiles": "COC(=O)C1=C(C(C)=O)C(c2ccc(C)cc2)n2nnnc2N1", "note": "(centres undefined)", "max response, negative = inhibition": "inconclusive: -31.3%"}
{"smiles": "CCOC(=O)Cn1cnc2c(cnn2-c2ccc(Cl)cc2)c1=O", "max response, negative = inhibition": "inconclusive: -49.8%"}
{"smiles": "C#CC[N+](CC)(CC)CC#Cc1cccc(Cl)c1", "max response, negative = inhibition": "inactive: -21.7%"}
{"smiles": "Cc1cc(C)nc(/N=C(\\N)Nc2ccc3c(c2)OCCO3)n1", "max response, negative = inhibition": "inactive: -1.26%"}
{"smiles": "COC(=O)c1ccc(CNC(=O)CNc2cc(C(F)(F)F)ccc2N2CCOCC2)cc1", "max response, negative = inhibition": "active: -56.6%"}
{"smiles": "O=C(NNC(=S)NCc1ccccc1)c1ccc2c(c1)OCO2", "max response, negative = inhibition": "inconclusive: -32.2%"}
{"smiles": "O=C1N(c2ccccc2C(F)(F)F)O[C@@]1(c1ccccc1)C1CCCCC1", "max response, negative = inhibition": "active: -56.7%"}
{"smiles": "COc1cccc(/C=C/C(=O)NCC2CCCCC2)c1", "max response, negative = inhibition": "inconclusive: -30.8%"}
{"smiles": "CCCNC(=O)C1CC(c2ccc(C(F)(F)F)cc2)=NO1", "note": "(centres undefined)", "max response, negative = inhibition": "inactive: -14.1%"}
{"smiles": "C/C=C/c1ccc(OCC(O)CN2CCCCCCC2)c(OC)c1", "note": "(centres undefined)", "max response, negative = inhibition": "inconclusive: -39.9%"}
{"smiles": "O=c1c2c(-c3cccs3)csc2ncn1/N=C/c1ccc(OC(F)F)cc1", "max response, negative = inhibition": "inconclusive: -33.7%"}
{"smiles": "O=C(Nc1cccc(F)c1)c1cc(S(=O)(=O)N2CCOCC2)cs1", "max response, negative = inhibition": "inactive: -5.46%"}
{"smiles": "CSc1ccc(CN2CCC(C)(Oc3ccc4ccccc4c3)C2)cc1", "note": "(centres undefined)", "max response, negative = inhibition": "inconclusive: -42.1%"}
{"smiles": "COc1ccc(C2=NS(=O)(=O)N(C)C(C(=O)Nc3ccc4c(c3)OCO4)=C2)cc1", "max response, negative = inhibition": "active: -103%"}
{"smiles": "Cc1onc(-c2c(F)cccc2Cl)c1C(=O)Nc1nnc(C(F)(F)F)s1", "max response, negative = inhibition": "inconclusive: -41.3%"}
{"smiles": "O=C(NC1CCC(Oc2ccc(C(=O)O)cc2)CC1)NC12CC3CC(CC(C3)C1)C2", "note": "(centres undefined)", "max response, negative = inhibition": "inconclusive: -33.1%"}
{"smiles": "Cc1ccccc1-c1nc(CN2CCC(C(=O)N3CCC(C(N)=O)CC3)CC2)c(C)o1", "max response, negative = inhibition": "inconclusive: -45.6%"}
{"smiles": "CC(=O)Nc1cccc(OCC(=O)Nc2ccccc2)c1", "max response, negative = inhibition": "inactive: -1.64%"}
